From publication PMC4352707
Like-named read-outs stand apart in the source and are kept apart here. These are yes or no findings as the source states them, for the method shown. In cells and extracts the contact can be indirect. Some results given as binding are weak or reduced against the parent protein; the word gives no strength. Tags and fused reporters may be left off the sequences shown.

The chains behind the UniProt entries cited, without tags or fusion partners. Where a name states a change or a piece, a line headed by the entry shows the natural chain unless it says otherwise.
UniProt Q93009: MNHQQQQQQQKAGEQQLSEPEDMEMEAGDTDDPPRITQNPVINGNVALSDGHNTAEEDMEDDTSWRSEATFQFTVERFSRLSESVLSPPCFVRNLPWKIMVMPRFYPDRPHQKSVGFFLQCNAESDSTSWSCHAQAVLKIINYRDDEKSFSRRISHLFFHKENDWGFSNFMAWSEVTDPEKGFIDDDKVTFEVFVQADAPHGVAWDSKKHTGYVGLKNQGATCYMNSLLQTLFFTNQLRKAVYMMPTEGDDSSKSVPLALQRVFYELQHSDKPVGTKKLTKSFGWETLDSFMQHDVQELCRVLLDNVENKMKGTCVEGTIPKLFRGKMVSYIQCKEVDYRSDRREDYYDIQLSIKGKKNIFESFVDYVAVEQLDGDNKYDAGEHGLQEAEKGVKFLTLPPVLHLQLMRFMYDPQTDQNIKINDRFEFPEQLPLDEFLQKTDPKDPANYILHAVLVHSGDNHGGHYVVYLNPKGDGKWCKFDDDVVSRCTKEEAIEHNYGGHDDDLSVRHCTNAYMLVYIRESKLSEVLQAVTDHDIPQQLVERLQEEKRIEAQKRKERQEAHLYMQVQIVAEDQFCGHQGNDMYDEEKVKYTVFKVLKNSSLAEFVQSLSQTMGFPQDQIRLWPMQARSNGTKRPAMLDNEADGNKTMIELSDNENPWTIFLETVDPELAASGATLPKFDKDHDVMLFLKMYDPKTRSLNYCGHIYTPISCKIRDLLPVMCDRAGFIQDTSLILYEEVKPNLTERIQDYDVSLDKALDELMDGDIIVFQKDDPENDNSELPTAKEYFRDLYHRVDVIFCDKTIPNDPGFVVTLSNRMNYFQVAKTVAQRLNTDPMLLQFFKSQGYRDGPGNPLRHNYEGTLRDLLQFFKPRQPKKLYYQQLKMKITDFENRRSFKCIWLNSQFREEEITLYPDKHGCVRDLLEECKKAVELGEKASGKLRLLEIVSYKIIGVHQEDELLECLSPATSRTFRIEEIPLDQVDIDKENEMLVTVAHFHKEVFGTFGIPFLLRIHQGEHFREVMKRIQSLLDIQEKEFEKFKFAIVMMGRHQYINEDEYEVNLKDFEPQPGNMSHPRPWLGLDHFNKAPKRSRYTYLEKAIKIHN

How the values were obtained:
Assay in all cases: co-IP; 293T cells transfected with FLAG-tagged Cry constructs and V5-tagged Hausp or Fbxl3 (calcium phosphate or PEI), lysis buffer with 1% TX-100, IP and immunoblot; untreated or treated with doxorubicin, irradiation or MG132
[1] = molecular target: T1, FLAG-Cry1 (pcDNA3-2xFlag-mCRY1) (mouse) (UniProt P97784)
T1 sequence: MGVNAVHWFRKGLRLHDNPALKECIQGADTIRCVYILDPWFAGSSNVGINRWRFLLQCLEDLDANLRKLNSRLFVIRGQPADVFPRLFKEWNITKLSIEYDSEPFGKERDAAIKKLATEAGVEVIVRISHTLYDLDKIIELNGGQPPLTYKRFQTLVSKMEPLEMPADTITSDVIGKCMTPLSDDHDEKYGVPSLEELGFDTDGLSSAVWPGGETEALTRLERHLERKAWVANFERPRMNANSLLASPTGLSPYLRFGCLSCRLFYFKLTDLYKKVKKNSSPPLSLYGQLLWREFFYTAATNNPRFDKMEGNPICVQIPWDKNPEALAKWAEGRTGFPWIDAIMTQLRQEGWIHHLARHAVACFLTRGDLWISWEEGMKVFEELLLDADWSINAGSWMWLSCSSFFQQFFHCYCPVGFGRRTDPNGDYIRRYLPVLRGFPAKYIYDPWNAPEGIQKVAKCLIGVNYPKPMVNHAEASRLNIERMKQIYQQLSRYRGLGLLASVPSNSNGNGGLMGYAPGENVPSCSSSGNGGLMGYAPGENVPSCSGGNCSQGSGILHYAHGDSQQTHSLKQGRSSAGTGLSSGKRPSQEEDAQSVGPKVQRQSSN

FLAG-Cry1 S588D (mouse) [2] = molecular target: T2, FLAG-Cry1 S588D (mouse) (UniProt P97784)
T2 sequence: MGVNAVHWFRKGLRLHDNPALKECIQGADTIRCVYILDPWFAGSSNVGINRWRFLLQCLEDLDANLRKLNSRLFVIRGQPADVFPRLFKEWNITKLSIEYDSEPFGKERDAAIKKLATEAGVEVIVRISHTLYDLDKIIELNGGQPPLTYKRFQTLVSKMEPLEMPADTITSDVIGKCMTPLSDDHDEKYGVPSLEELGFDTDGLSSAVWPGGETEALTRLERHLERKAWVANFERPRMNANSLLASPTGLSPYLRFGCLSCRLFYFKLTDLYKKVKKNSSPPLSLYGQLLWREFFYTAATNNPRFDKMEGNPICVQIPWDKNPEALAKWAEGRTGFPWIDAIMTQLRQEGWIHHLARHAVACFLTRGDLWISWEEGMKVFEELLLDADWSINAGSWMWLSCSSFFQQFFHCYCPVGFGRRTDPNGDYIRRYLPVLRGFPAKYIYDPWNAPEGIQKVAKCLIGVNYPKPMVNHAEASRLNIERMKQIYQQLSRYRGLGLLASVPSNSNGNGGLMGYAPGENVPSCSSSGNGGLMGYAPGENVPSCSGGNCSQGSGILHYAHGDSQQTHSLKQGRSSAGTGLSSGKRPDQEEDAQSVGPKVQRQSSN

FLAG-Cry1 S588D (mouse) [3] = molecular target: T2, FLAG-Cry1 S588D (mouse); remark: listed apart in the source
[4] = molecular target: T3, FLAG-Cry2 (pcDNA3-2xFlag-mCRY2) (mouse) (UniProt Q9R194)
T3 sequence: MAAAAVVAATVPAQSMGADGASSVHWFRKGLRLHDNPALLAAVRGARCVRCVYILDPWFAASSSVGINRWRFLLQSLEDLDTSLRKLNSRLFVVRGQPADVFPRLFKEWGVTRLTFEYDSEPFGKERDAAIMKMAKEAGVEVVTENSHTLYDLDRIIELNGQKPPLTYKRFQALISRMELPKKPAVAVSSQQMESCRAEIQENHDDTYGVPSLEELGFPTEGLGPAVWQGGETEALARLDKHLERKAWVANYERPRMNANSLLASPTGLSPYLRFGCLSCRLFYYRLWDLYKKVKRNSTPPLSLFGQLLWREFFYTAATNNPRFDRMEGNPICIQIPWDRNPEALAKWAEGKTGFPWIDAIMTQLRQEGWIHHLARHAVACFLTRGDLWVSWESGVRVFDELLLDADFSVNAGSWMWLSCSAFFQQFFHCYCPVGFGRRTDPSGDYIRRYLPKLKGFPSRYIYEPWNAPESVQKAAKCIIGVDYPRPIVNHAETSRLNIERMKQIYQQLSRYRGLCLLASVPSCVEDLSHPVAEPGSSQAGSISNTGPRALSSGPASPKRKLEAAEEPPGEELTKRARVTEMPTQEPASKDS

[5] = molecular target: T1, FLAG-Cry1 (pcDNA3-2xFlag-mCRY1) (mouse); remark: listed apart in the source

Molecule: Hausp S18A (V5-tagged) (from UniProt Q93009 1-1102) (enzyme)
- binding [1]: binds

Molecule: Hausp S18D (V5-tagged) (from UniProt Q93009 1-1102) (enzyme)
- binding [1]: binds

Molecule: Hausp-V5 (from UniProt Q93009 1-1102) (enzyme)
- binding (FLAG-Cry1 S588D (mouse) [2]): binds
- binding [1]: binds

B1: Fbxl3-V5 (pcDNA3-Fbxl3-v5) (protein, UniProt Q8C4V4 1-428)
chain: MKRGGRDSDQDSAEEGTAEKPKRPRTTQERSQPCDWGNLLQDIVLHVFKYLPLLDRAHASQVCRNWNQVFHMPDLWRCFEFELNQPATSYLKATHPELIKQIIKRHSNHLQYVSFKVDSSKESAEAACDILSQLVNCSLKTLGLISTARPSFMDLPKSHFISALTVVFVNSKSLSSLKIDDTPVDDPSLKVLVANNSDTLKLLKMSSCPHVSPAGILCVADQCHGLRELALNYHLLSDELLLALSSEKHVRLEHLRIDVVSENPGQTHFHTIQKSSWDAFIKHSPKVNLVMYFFLYEEEFDPFFRYEIPATHLYFGRSVSKDVLGRVGMTCPRLVELVVCANGLRPLDEELIRIAERCKNLSAIGLGECEVSCSAFVEFVKMCGGRLSQLSIMEEVLIPDQKYSLEQIHWEVSKHLGRVWFPDMMPTW
- binding (FLAG-Cry1 S588D (mouse) [3]): binds
- binding [4]: binds
- binding [5]: binds
